From US20190201449

Legend:
PU.1 (SPI1) [1] = molecular target: PU.1 (SPI1) (UniProt P17947); assay: footprint; conditions: HL-60 nuclear extract 5-40 ug; protected -37 to -53; protein in an extract; protein details: endogenous PU.1 in THP-1 or HL-60 nuclear extract
PU.1 (SPI1) [2] = molecular target: PU.1 (SPI1) (UniProt P17947); assay: EMSA
Sp1/Sp3 = assay: binding assay; conditions: bound in vitro and in vivo; site mutation lowers promoter activity 35-50%; protein in an extract
PU.1 (SPI1) [3] = molecular target: PU.1 (SPI1) (UniProt P17947); assay: binding assay
AP-1 (c-Fos, c-Jun) = assay: binding assay; conditions: ChIP, HL-60 cells; p40-PU.1 region as control; protein in cells; protein details: endogenous in HL-60 cells
[4] = tested on: AP-1 (Jun and Fos family proteins); assay: binding assay; conditions: HL-60 nuclear extract, in vitro binding; protein in an extract; protein details: HL-60 nuclear extract
PU.1/HAF1 = assay: binding assay; conditions: bound in vitro and in vivo; site mutation lowers promoter activity 35-50%; protein in an extract

“AAAGAGGAAGTCGCTT (double strand) [p47phox promoter footprint region (lower strand)]”: binds (PU.1 (SPI1) [1]); binds (PU.1 (SPI1) [2]; in vitro synthesized PU.1 binds element specifically, mutation of site abolished binding, method not given, synthetic protein, protein details: in vitro synthesized).

“CTCAGAATAGGGGAGGGGCAGGACA (double strand) [p67phox Sp1/Sp3 site (-694)]”: binds (Sp1/Sp3).

“GAGGGTCCACTTCCTCAATTTCTGTG (double strand) [p40phox PU.1a]”: binds (PU.1 (SPI1) [3]; ChIP, HL-60 cells, PU.1 sites occupied in vivo, not resolved individually, protein in cells, protein details: endogenous in HL-60 cells).

“GCTGATGTACTTCCTCTCTCCTCCAC (double strand) [p67phox PU.1 site (-289)]”: binds (PU.1 (SPI1) [3]; bound in vitro and in vivo, site mutation lowers promoter activity 35-50%, protein in an extract, protein details: endogenous PU.1 in THP-1 or HL-60 nuclear extract).

“GGGCTCGAGGACTTCCTCTTTCCAGTGCATTTAA (double strand) [p47-PU.1-48 (46G wild type)]”: binds (PU.1 (SPI1) [2]; THP-1 nuclear extract, probe is an underlined part of the listed construct sequence, protein in an extract, protein details: endogenous PU.1 in THP-1 or HL-60 nuclear extract).

“GGTAGGGTTATGAGTCAGTTGCCAAA (double strand) [p67phox AP-1 site (-210, intron 1)]”: binds (AP-1 (c-Fos, c-Jun)); binds [4].

“GTGGGGACATTTCCTGATGCATTTTGC (double strand) [p67phox PU.1/HAF1 site (-182)]”: binds (PU.1/HAF1).

At least one result comes from cells or an extract, where the contact may be indirect. For part of these data: For at least one entry, the source does not settle the construct or the ends of the probe.
